Experimental data taken from patent publication US11040052B2, “Methods and pharmaceutical compositions for modulating autophagy in a subject in need thereof” (INSERM (INSTITUT NATIONAL DE LA SANTE ET DE LA RECHERCHE …, priority 2013, dated 2021).
Entries after “also recorded” stand apart in the source; their conditions may differ. For at least one compound, name, drawing or mass did not settle the structure.

How the values were obtained:
AcCoA levels = assay: Targeted analysis of AcCoA levels in cultured cells (HPLC-MS); format: cell-based, human
Description: Cells were trypsinized, pelleted at 1000 rpm for 4 min, washed with PBS and pelleted again at 1000 rpm for 4 min. Cells were then resuspended in 5 ml of ice-cold hyposmotic buffer and keep on ice for 5 min. Cells were broken to release nuclei using a pre-chilled Dounce homogenizer (20 strokes with a tight pestle) and then were then centrifuged at 228 g.
For in vitro experiments, cell pellets were resuspended in 300 μL of water with HEPES and EDTA (pH 7.4) at 1 mM containing internal standard acetylcoenzyme A (2-C13) at 1 mg/L, vortexed and heated at 100° C. for 1 min. Samples were incubated in liquid nitrogen for 1 min and thawed at room temperature two times. They were let for 1 h at −20° C. and centrifuged at 4° C. during 15 min at 13,000 g. Supernatants were transferred in HPLC vials and injected in HPLC/MS or kept at −80° C. until injection. […]
Targeted analyses were performed on Rapid Resolution Liquid Chromatography (RRLC) 1200SL system (Agilent Technologies, Waldbronn, Germany) coupled to a Triple Quadruple QQQ 6410 mass spectrometer (Agilent Technologies). […] Two transitions were recorded for each compound; • AcCoA 810>303 CE (collision energy) 28V; fragmentor 180V • 810>428 CE 20V • AcCoA 2-C13 812>305 CE 28V; fragmentor 180V • 812>428 CE 24V for 20 min at 4C to pellet nuclei and other fragments. […]

[1] = tested on: starvation-induced autophagy in mice tissues; assay: Starved mice: tissue AcCoA, protein acetylation and starvation-induced autophagy; format: in vivo
Description: C57BL/6 mice (Charles River Laboratory, […], France) were bred and maintained according to both the FELASA and the Animal Experimental Ethics Committee Guidelines (Val de Marne, France). Mice were housed in a temperature-controlled environment with 12 h light/dark cycles and received food and water ad libitum. For HC-related experiments, mice were injected intraperitoneally with a single 100 mg/kg dose and 6 h later were sacrificed and tissues were immediately frozen in liquid nitrogen. […] Tissue extracts were then centrifuged at 12,000 g at 4° C. and supernatants were collected. Protein concentration in the supernatants was evaluated by the bicinchoninic acid technique (BCA protein assay kit, Pierce Biotechnology, Rockford, Ill.). For hydroxycitrate-related weight-loss experiments, autophagy-deficient Atg4b^-/- mice were used. Atg4b^-/- mice have been previously described (Mariño et al., 2010). For HC-, spermidine-, and resveratrol-related experiments (tumour growth) mice were intraperitoneally injected with respectively 100 mg/kg, 50 mg/kg and 100 mg/kg doses at day 8 and day 9. At day 9, mice were intraperitoneally injected with 2 mg/kg single dose of Mitoxanthrone. […] In each organ, the number of GFP-LC3 dots was counted in five independent visual fields from at least five mice using a TCS SP2 confocal fluorescence microscope (Leica Microsystems GmbH). […]

EP300 = assay: Acetylation of EP300 K1499 in starved cells; format: cell-based; settings: nutrient-free conditions

O=C(O)C(Cl)Cl [DCA, dichloroacetate]
cytosolic AcCoA levels (AcCoA levels; cytosolic fraction): also raised the cytosolic concentration of AcCoA
AcCoA levels in starved cells (AcCoA levels; nutrient-depleted (starved) cells in vitro): increase in both AcCoA levels; also recorded: suppression of starvation-induced AcCoA depletion
starvation-induced autophagy in vivo ([1]; LC3 lipidation and GFP-LC3 in heart and muscle): inhibited starvation-induced autophagy in vivo; also recorded: suppression
AcCoA levels in mice tissues after 24 h starvation ([1]; intraperitoneal injection, vs vehicle): increased AcCoA levels after 24 h-starvation
starvation-induced deacetylation of the K1499 residue in EP300 (EP300): could be avoided
